The source of these data is publication PMC3180291.

Sequences of proteins named here, by UniProt entry; tags and fusion partners are left off.
UniProt P08515, whole entry: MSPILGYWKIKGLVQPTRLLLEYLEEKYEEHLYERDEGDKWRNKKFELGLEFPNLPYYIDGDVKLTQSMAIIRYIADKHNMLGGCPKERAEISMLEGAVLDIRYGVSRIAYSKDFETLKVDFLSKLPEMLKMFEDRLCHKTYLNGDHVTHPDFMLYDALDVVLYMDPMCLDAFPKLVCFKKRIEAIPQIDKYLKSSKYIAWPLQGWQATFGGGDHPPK

For at least one entry, the source does not settle the construct or the ends of the probe. For part of these data: No signal at the amounts used counts as a negative.

One data set concerns GST-OsDERF1. The data set can be described thus: EMSA. As to conditions: 5 mM Mg2+, poly(dI-dC), shift fully competed by excess unlabeled probe; 10 mM Tris pH 7.5, 50 mM KCl, 1 mM DTT, 2.5% glycerol, 0.05% NP-40, 5 mM MgCl2, 0.5 mM EDTA, 5 ng/mL poly(dI-dC), 30 ng protein, 1 ng DNA, 15 min room temperature; recombinant protein; protein details: N-terminal GST (pGEX-4T-1); label: 3'-DIG. (In general: In EMSA bound probe runs differently from free probe, usually more slowly.)

For the next data set, the target named is GST (UniProt P08515). The data set is described as follows: EMSA. As to conditions: tag control; 10 mM Tris pH 7.5, 50 mM KCl, 1 mM DTT, 2.5% glycerol, 0.05% NP-40, 5 mM MgCl2, 0.5 mM EDTA, 5 ng/mL poly(dI-dC), 30 ng protein, 1 ng DNA, 15 min room temperature; recombinant protein; label: 3'-DIG.

On to “CGCGCGACACCACCATTCGCTTCGCCGCCTACCTGACGCGAAAAT (double strand) [OsAP2-39-p5 GCC box probe]”, for which the binding result in the data set with GST-OsDERF1 was “binds”.

Turning to “GAAAAGCGCTCGCCTAATTTTAATGCCGCCTCGCTAAAGACGAGGGGCGGCGGCAAGGAG (double strand) [OsERF3-p4 GCC box probe]”, the binding result was “no binding” with GST and “binds” with GST-OsDERF1.
